# Assay results published in patent US9567380B1, “Microtubule organizing center (MTOC)-inactivating peptides” (THE RESEARCH FOUNDATION FOR THE STATE UNIVERSITY OF NEW YORK, priority 2015, dated 2017).
# Legend:
# [1] = system: human MCF-7 breast cancer cells; assay: Mitotic arrest after live cell peptide transfection (Chariot) of MCF-7 cells; format: cell-based
# Method: (§1) MCF-7 and MDA-MB-231 (ATCC) cells were maintained in 25 cm^2 tissue culture treated Corning flasks (Sigma-Aldrich) in DMEM complete medium with Glutamax-1 and supplemented with 10% fetal bovine serum. MCF-7 DMEM complete medium was additionally supplemented with 0.01 mg/mL bovine insulin (Sigma-Aldrich). Flasks were maintained at 37° C. in 5% CO2, 95% air, and cells were passaged every 5-7 days using 1 mL TrypLE (Life Technologies).
# (§2) For live cell peptide transfection we used the Chariot system (Active Motif) according to the manufacturer's instructions. Cells were seeded into 35 mm tissue culture-treated dishes containing coverslips and grown in complete medium to ˜60% confluency. 1 μg of Kinesin-14 Tail peptide PγTR (GenScript) was diluted in 100 μL 1×PBS on ice. 6 μL of 1/10 PBS-diluted Chariot reagent was further diluted into 100 μL sterile water on ice in a separate tube. Diluted peptide and diluted Chariot were combined and incubated at room temperature for 30 minutes to allow the Chariot-peptide complex to form. Following incubation, media was aspirated from cells, which were then washed once in 1×PBS. […]
# (§3) For statistical analysis of phenotypes, n values were chosen as number of cells per strain needed to ensure adequate power to detect significant outcomes. […] For cell cycle arrest by 1 μg transfection of PγTR, 12 fields at 200× were counted. […]
# MDA-MB-231 cells = assay: Mitotic arrest after live cell peptide transfection (Chariot) of MDA-MB-231 cells; format: cell-based, human
# Method: as §1, §2, §3
# [2] = 24 h after transfection with 1 μg peptide
sequence,measurement,setting,value
"YSKFKESAAPQLKDLIGSGAEKDHEYSLQLQ (6-His tag) [PγTR, Kinesin-14 Pkl1 Tail peptide, γ-TuRC targeting and regulatory; used 6-His tagged]","percentage of population with very low but detectable levels of peptide at the centrosome, cells appeared normal",[1]; 24 h after transfection,4.3%
same,cells transfected with peptide based on fluorescence staining using the 6-His tag,[1]; [2],43.3%
same,"percentage of population with very low but detectable levels of peptide at the centrosome, cells appeared normal",MDA-MB-231 cells; 24 h after transfection,5.1%
same,cells transfected with peptide based on fluorescence staining using the 6-His tag,MDA-MB-231 cells; [2],27.7%
